Measurements from PubChem BioAssay AID248 (DTP/NCI, 2004).
The list shows only some results of the screen, not a fair sample: it is rich in T/C values a quarter to a half above the control, in often repeated tests (any T/C) and in doses without a T/C. Other doses and runs of a compound stand elsewhere. T/C is the treated group as % of the vehicle group. Some doses have a count of surviving animals in place of a T/C: the source holds a T/C of zero for them, seemingly a mark for toxic or unscored doses. Some doses without a T/C left all or most animals alive at the check, yet need not have been tolerated: survival well below the control is almost never listed, so the zero probably covers shortened survival too. Survivors were counted at the toxicity check, usually on the fifth day, unless a day is given; later deaths do not show. Schedules are NCI's codes, read here as Q, the interval in days (D) or hours (H), X, the number of doses. Some entries hold several experiments; their values stand side by side, smallest first. Where survival is the endpoint, this PubChem deposit counts one and a half times the control or more as active, and values a quarter to a half above the control carry no call in these data; other NCI protocols may use other cut-offs.

Tested on: L1210 leukemia ip in BDF1 mice, survival T/C
Assay: NCI In Vivo Anticancer Drug Screen. Data for tumor model L1210 Leukemia (intraperitoneal) in B6D2F1 (BDF1) mice
Conditions: T/C endpoint: mean survival time, higher T/C = longer survival
[1] = dose: 300.0 mg/kg/injection, schedule: Q01DX001 (ip), vehicle: carboxymethylcellulose (CMC)
[2] = dose: 100.0 mg/kg/injection, schedule: Q01DX001 (ip), vehicle: other
[3] = dose: 100.0 mg/kg/injection, schedule: Q04DX003 (ip), vehicle: saline with Tween-80
[4] = dose: 400.0 mg/kg/injection, schedule: Q04DX003 (ip), vehicle: saline with Tween-80
[5] = dose: 100.0 mg/kg/injection, schedule: Q04DX002 (ip), vehicle: Klucel (hydroxypropylcellulose) (HPC)
[6] = dose: 100.0 mg/kg/injection, schedule: Q04DX003 (ip), vehicle: Klucel (hydroxypropylcellulose) (HPC)
[7] = dose: 200.0 mg/kg/injection, schedule: Q04DX002 (ip), vehicle: Klucel (hydroxypropylcellulose) (HPC)
[8] = dose: 200.0 mg/kg/injection, schedule: Q04DX003 (ip), vehicle: Klucel (hydroxypropylcellulose) (HPC)
[9] = dose: 400.0 mg/kg/injection, schedule: Q04DX002 (ip), vehicle: Klucel (hydroxypropylcellulose) (HPC)
[10] = dose: 400.0 mg/kg/injection, schedule: Q04DX002 (ip), vehicle: saline with Tween-80
[11] = dose: 100.0 mg/kg/injection, schedule: Q04DX003 (ip), vehicle: saline
[12] = dose: 200.0 mg/kg/injection, schedule: Q04DX003 (ip), vehicle: saline
[13] = dose: 400.0 mg/kg/injection, schedule: Q04DX003 (ip), vehicle: saline
[14] = dose: 400.0 mg/kg/injection, schedule: Q01DX009 (ip), vehicle: saline
[15] = dose: 400.0 mg/kg/injection, schedule: Q04DX003 (ip), vehicle: Klucel (hydroxypropylcellulose) (HPC)
[16] = dose: 400.0 mg/kg/injection, schedule: Q01DX001 (ip), vehicle: carboxymethylcellulose (CMC)
[17] = dose: 200.0 mg/kg/injection, schedule: Q04DX003 (ip), vehicle: saline with Tween-80
[18] = dose: 400.0 mg/kg/injection, schedule: Q04DX002 (ip), vehicle: saline

`CCN(CC)C(=O)C(N)Cc1ccc(OC)c(N(CCCl)CCCl)c1` (stereo unspecified) was tested, and the T/C (dose: 33.0 mg/kg/injection, schedule: Q01DX001 (ip), vehicle: carboxymethylcellulose (CMC)) was 125 % of control, the T/C (dose: 33.0 mg/kg/injection, schedule: Q01DX009 (ip), vehicle: carboxymethylcellulose (CMC)) was 131 % of control and the T/C (dose: 50.0 mg/kg/injection, schedule: Q01DX001 (ip), vehicle: carboxymethylcellulose (CMC)) was 125 % of control. The T/C (dose: 75.0 mg/kg/injection, schedule: Q01DX001 (ip), vehicle: carboxymethylcellulose (CMC), evaluated on day 30) was 145 % of control, the T/C (dose: 75.0 mg/kg/injection, schedule: Q01DX001 (ip), vehicle: carboxymethylcellulose (CMC), run until all animals had died) was 138 % of control and the T/C (dose: 75.0 mg/kg/injection, schedule: Q01DX001 (ip), vehicle: saline) was 141 % of control. The survivor count (dose: 112.5 mg/kg/injection, schedule: Q01DX009 (ip), vehicle: carboxymethylcellulose (CMC)) was 4 of 6 and the survivor count [1] was 1 of 6.

With `CC1=C(/C=C/C(C)=C/C=C/C(C)=C/CO)C(C)(C)CCC1` the T/C [2] was 139 % of control.

With `O=C(Nc1cc(C(F)(F)F)ccc1Cl)c1cccc(C(=O)Nc2cc(C(F)(F)F)ccc2Cl)c1` the survivor count [3] was 6 of 6 and the survivor count [4] was 5 of 6.

`Cc1ccc([N+](=O)[O-])cc1NC(=O)N(C)Cc1ccc(Cl)cc1` was tested, and the T/C [5] was 91, 94, 95, 97 % of control, the T/C [6] was 126 % of control and the T/C [7] was 94, 97, 98, 106 % of control. For the same compound, the T/C [8] was 126 % of control and the T/C [9] was 91, 98, 100, 144 % of control.

With `CCS[P+](NC1CCCCC1)(NC1CCCCC1)NC1CCCCC1` the survivor count (dose: 100.0 mg/kg/injection, schedule: Q01DX009 (ip), vehicle: saline with Tween-80) was 1 of 3, the survivor count (dose: 100.0 mg/kg/injection, schedule: Q04DX002 (ip), vehicle: saline with Tween-80) was 1 of 3 and the survivor count (dose: 200.0 mg/kg/injection, schedule: Q04DX002 (ip), vehicle: saline with Tween-80) was 0 of 3. For the same compound, the survivor count [10] was 0 of 3.

In the case of `COC(=O)/C=C\C[P+](c1ccccc1)(c1ccccc1)c1ccccc1`, the survivor count (dose: 200.0 mg/kg/injection, schedule: Q01DX001 (ip), vehicle: saline) is reported as 0 of 6 and the survivor count (dose: 400.0 mg/kg/injection, schedule: Q01DX001 (ip), vehicle: saline) is reported as 0 of 6.

For `COc1cc(C=Nc2ccc3nc(C)[nH]c3c2)ccc1N(CCCl)CCCl`, the survivor count [5] was 0 of 3, the survivor count [7] was 0 of 3 and the survivor count [9] was 0 of 3.

With `CC(C)c1ccc(N2C(=O)CSC2=S)cc1` the survivor count [10] was 3 of 3.

With `C[N+](C)(Cc1ccc(Cl)cc1)C1c2ccccc2-c2ccccc21` the survivor count (dose: 12.5 mg/kg/injection, schedule: Q04DX003 (ip), vehicle: saline) was 6 of 6, the survivor count [11] was 0 of 6 and the survivor count [12] was 0 of 6. The survivor count [13] was 0 of 6.

For `CC(CN1c2ccccc2Sc2cccnc21)N(C)C` (stereo unspecified), the survivor count (dose: 100.0 mg/kg/injection, schedule: Q01DX009 (ip), vehicle: saline) was 0 of 6, the survivor count [11] was 1 of 4 and the survivor count (dose: 200.0 mg/kg/injection, schedule: Q01DX009 (ip), vehicle: saline) was 0 of 6. For the same compound, the survivor count [12] was 0 of 4, the survivor count [14] was 0 of 6 and the survivor count [13] was 0 of 4.

In the case of `CC(C)=CC(=O)NC(=O)NS(=O)(=O)c1ccc(C)cc1`, the survivor count (dose: 200.0 mg/kg/injection, schedule: Q01DX009 (ip), vehicle: Klucel (hydroxypropylcellulose) (HPC)) is reported as 6 of 6 and the T/C [15] is reported as 125 % of control.

In the case of `CCOCC[n+]1ccc(C)cc1`, the survivor count [13] is reported as 2 of 6.

For `COC1=C(NC(C)c2ccccc2)C(=O)C(OC)=C(NC(C)c2ccccc2)C1=O` (stereo unspecified), the survivor count (dose: 100.0 mg/kg/injection, schedule: Q01DX001 (ip), vehicle: carboxymethylcellulose (CMC)) was 4 of 4 and the survivor count [16] was 4 of 4.

For `Cc1cc(N(CCOS(C)(=O)=O)CCOS(C)(=O)=O)ccc1C=Nc1ccccc1C(=O)O`, the T/C (dose: 20.0 mg/kg/injection, schedule: Q04DX003 (ip), vehicle: Klucel (hydroxypropylcellulose) (HPC)) was 126 % of control, the survivor count (dose: 80.0 mg/kg/injection, schedule: Q04DX003 (ip), vehicle: Klucel (hydroxypropylcellulose) (HPC)) was 6 of 6 and the survivor count [6] was 6 of 6. The survivor count [8] was 5 of 6 and the survivor count [15] was 1 of 6.

In the case of `COC1OC(CN2CC2)C2OC(C)(C)OC12` (stereo unspecified), the survivor count (dose: 150.0 mg/kg/injection, schedule: Q01DX001 (ip), vehicle: carboxymethylcellulose (CMC)) is reported as 2 of 6 and the survivor count [1] is reported as 0 of 6.

In the case of `O=c1[nH]cc(CC(F)(F)C(F)(F)F)c(=O)[nH]1`, the survivor count (dose: 100.0 mg/kg/injection, schedule: Q01DX005 (ip), vehicle: other) is reported as 2 of 3 and the survivor count (dose: 200.0 mg/kg/injection, schedule: Q01DX005 (ip), vehicle: other) is reported as 1 of 3.

With `O=C(CBr)c1cccc2c1Nc1ccccc1S2` the survivor count (dose: 150.0 mg/kg/injection, schedule: Q01DX001 (ip), vehicle: saline) was 0 of 6 and the survivor count (dose: 300.0 mg/kg/injection, schedule: Q01DX001 (ip), vehicle: saline) was 1 of 6.

In the case of `O=[N+]([O-])c1cc(O)cc(F)c1`, the survivor count (dose: 200.0 mg/kg/injection, schedule: Q01DX001 (ip), vehicle: carboxymethylcellulose (CMC)) is reported as 0 of 6 and the survivor count [16] is reported as 0 of 6.

`Nc1ccc(C(=O)N/N=C/c2ccc(Cl)cc2Cl)cc1` was tested, and the survivor count [9] was 3 of 3.

`NC1CC[N-]CC1.NC1CC[N-]CC1.NC1CC[N-]CC1.NC1CC[N-]CC1.[Cl][Rh][Cl]` was tested, and the survivor count [3] was 1 of 6, the survivor count [17] was 0 of 6 and the survivor count [4] was 0 of 6.

For `O=C(N/N=C\c1cc(Cl)ccc1[N+](=O)[O-])c1ccco1`, the survivor count [2] was 4 of 4 and the survivor count (dose: 400.0 mg/kg/injection, schedule: Q01DX001 (ip), vehicle: other) was 2 of 4.

`NC(CS)=NCc1ccccc1` was tested, and the survivor count (dose: 100.0 mg/kg/injection, schedule: Q04DX002 (ip), vehicle: saline) was 0 of 3, the survivor count (dose: 200.0 mg/kg/injection, schedule: Q04DX002 (ip), vehicle: saline) was 0 of 3 and the survivor count [18] was 0 of 3.

With `C=CCOC(=O)C(F)(F)F` the survivor count [18] was 0 of 3.

With `CCCCN=CC(C)(C)NCCCC` the survivor count [14] was 0 of 6 and the survivor count [13] was 4 of 6.

`COc1cc(NC(C)CCCN)c2nc(OCc3ccccc3)ccc2c1` (stereo unspecified) was tested, and the survivor count [3] was 1 of 6, the survivor count [17] was 0 of 6 and the survivor count [4] was 0 of 6.

In the case of `COc1cc2c3c(c1)C(O)CC[N+]3(C)CCC2` (stereo unspecified), the survivor count [11] is reported as 6 of 6, the survivor count [12] is reported as 0 of 6 and the survivor count [13] is reported as 1 of 6.

For `CCN(CC)Cc1ccc([N+](=O)[O-])cc1`, the survivor count [18] was 0 of 3.

With `CC1(C)N=C(N)N=C(N)N1c1cccc(OCCOc2ccccc2[N+](=O)[O-])c1` the survivor count [5] was 3 of 6 and 2 of 3, the survivor count [7] was 0 of 3 and 0 of 6 and the survivor count [9] was 0 of 3 and 0 of 6.
